Data reported in publication PMC6508746.
These are yes or no findings as the source states them, for the method shown. In cells and extracts the contact can be indirect. Binding calls can cover weak binding; strength is not graded here.

Biological target: MC80S-F (Molluscum contagiosum virus (MCV genotype 1))
Experiment: co-IP; anti-Flag IP of digitonin lysates of retrovirally transduced MEFs (MEF-L^d untreated; TAP1-/- MEFs +IFNɣ; MEF-L^d treated with MG132 for 8 h for the Derlin-1 blot), beads washed in 0.1% digitonin, eluted with Flag peptide or LDS sample buffer, immunoblot of eluates

B1: Derlin-1 (mouse) (protein, UniProt Q99J56 1-251)
chain: MSDIGDWFRSIPAITRYWFAATVAVPLIGKLGIISPAYFFLWPEAFLYRFQIWRPFTATFYFPVGPGTGFLYLVNLYFLYQYSTRLEAGAFDGRPADYLFMLLFNWICIVITGLAMDMQLLMIPLIMSVLYVWAQLNRDLIVSFWFGTRFKACYLPWVILGFNYIIGGSVINELIGNLVGHLYFFLMFRYPMDLGGRNFLSTPQFLYRWLPSRRGGVSGFGVPPASMRRAADQNGGGGRHNWGQGFRLGDQ
B1 was tested, and the binding was “binds”.
